Sequences of proteins named here, by UniProt entry; tags and fusion partners are left off. Residues count along the entry.
UniProt Q63053, 207-278: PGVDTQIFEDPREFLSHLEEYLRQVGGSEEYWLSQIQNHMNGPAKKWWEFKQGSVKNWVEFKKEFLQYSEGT

According to PMC4409568 (Neuron, 2015):

Assays:
[1] = biological target: T1, Arc(207-278) binding to TARPγ2 peptide (Rattus norvegicus, UniProt Q63053); settings: FP competition; Figure 5E
[2] = biological target: T1, Arc(207-278) binding to TARPγ2 peptide; experiment: biochemical

## CSc1ccc2c(c1)N(CCC1CCCCN1C)c1ccccc1S2 (centres unmarked) [Thioridazine]
[1]
  binding inhibited over 1 log [Thioridazine]: ~ 80%
[2]
  IC50: 194 µM
